In the supplement of paper PMC3334620:
The full ranking holds about 33,000 sequences; the median of “E-score (-0.5 to 0.5)” is about -0.0059, and the highest 2% start at about 0.26. The list shows a part of the results.

molecular target: T1, Cin5 (UniProt P40917); assay: PBM E-score (8-mer binding enrichment) (E-score (-0.5 to 0.5)); higher = stronger / more preferred TF binding; settings: protein concentration: 100 nM; construct: GST-full length
T1 sequence: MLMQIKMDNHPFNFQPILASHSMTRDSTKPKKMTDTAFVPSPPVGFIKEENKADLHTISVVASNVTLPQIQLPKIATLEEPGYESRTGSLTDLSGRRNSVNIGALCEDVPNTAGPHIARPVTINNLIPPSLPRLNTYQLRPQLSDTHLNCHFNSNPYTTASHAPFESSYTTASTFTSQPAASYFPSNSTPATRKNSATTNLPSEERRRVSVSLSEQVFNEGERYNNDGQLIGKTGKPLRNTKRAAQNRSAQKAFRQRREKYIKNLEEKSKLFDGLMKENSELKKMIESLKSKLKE
Outline: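 Full-length yeast transcription factors or their DNA-binding domains, GST-tagged and expressed with PURExpress, were applied at about 100-200 nM to universal all-10-mer Agilent arrays. These arrays had been made double-stranded by primer extension on fresh or once-stripped slides. Detection used fluorescent anti-GST, normalisation used masliner, and E-scores for ungapped eight-base words pooled with reverse complements came from the Universal PBM Analysis Suite.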

Sequence | PBM E-score
AGGTCCGC | -0.254
AAAGCTAA | 0.00062
GGACCTGA | -0.107
ATGCAGGG | -0.119
ATTCAGGG | 0.0301
CGCATTGA | 0.109
CGGATGAC | 0.16
CTCTGAAC | -0.215
CGCTTGAC | 0.00564
CGTATTAC | 0.214
GAGTTTAA | 0.128
GACCCTAA | -0.116
ACTTCTTC | 0.0453
AACTACAG | 0.065
GAGCAAGC | -0.199
TCAGAAAA | 0.0264
AAGGTCAC | -0.0793
CCTGCTGA | 0.25
CCCCTCTA | -0.239
AATCTAGT | 0.171
AGGGGGAA | -0.263
AAGGTTGA | 0.0486
CCGAACAA | 0.0637
CGTTCACA | 0.0858
CTCAGCAG | -0.0655

Sequence | PBM E-score
CACCAGGA | -0.0754
TACGGTGA | 0.0829
CTCTGCCC | -0.0596
AAGGACTA | -0.0176
GCCAGGGC | -0.336
AGCGGGCC | -0.04
CGCCCTCC | -0.252
CGAGGGGC | -0.256
CCCACTCG | -0.249
ACCTTTCC | -0.0829
ATTAGTTC | 0.217
TAGGGCCA | -0.121
AAAAGTTG | 0.0199
TAGGCTGA | -0.018
CGCCAATC | -0.00585
ACCGTCAG | -0.157
CAAACTCA | 0.0919
CGCAGGAC | -0.018
CATATATG | 0.114
ATACAGCA | 0.148
TACTTGGA | 0.123
GTGACGGA | 0.0528
CAGCCGGG | -0.135
CGCGACTA | 0.0315
TATGTTAA | 0.121

Sequence | PBM E-score
GGCCCTGA | -0.147
AAAAGACT | -0.205
AATGTCAT | 0.108
GACGAGAC | 0.0172
CGCTCTAA | -0.0655
TAGAGTCA | -0.294
GTTTTCCA | 0.0639
ATGCTCCC | -0.265
ATCGGACG | -0.0954
GGTGAAGA | -0.0933
ACTAGCGG | -0.0618
CAAGGAAA | 0.0493
GATGGCGA | 0.0413
AGAATACA | 0.18
AGGGCAGG | -0.227
CGGGAGGA | -0.0584
ACCTGGCA | -0.0922
ATCTTATG | 0.0173
ACTGGGTA | -0.112
AAATTTCA | -0.14
GTAGACCA | -0.101
AATATCGT | 0.193
TGCTAACA | -0.0305
ATTGGATA | 0.129
CGTTTCAA | -0.0888

Another view of some results above.

| Sequence | PBM E-score |
| --- | --- |
| AAAGCTAA | 0.00062 |
| GGACCTGA | -0.107 |
| ATGCAGGG | -0.119 |
| CGCATTGA | 0.109 |
| CGGATGAC | 0.16 |
| CTCTGAAC | -0.215 |
| CGCTTGAC | 0.00564 |
| CGTATTAC | 0.214 |
| GAGTTTAA | 0.128 |
| GACCCTAA | -0.116 |
| ACTTCTTC | 0.0453 |
| GAGCAAGC | -0.199 |
| CCCCTCTA | -0.239 |
| AATCTAGT | 0.171 |
| AGGGGGAA | -0.263 |
| CCGAACAA | 0.0637 |
| CTCAGCAG | -0.0655 |
| CTCTGCCC | -0.0596 |
| AAGGACTA | -0.0176 |
| GCCAGGGC | -0.336 |
| CGCCCTCC | -0.252 |
| TAGGGCCA | -0.121 |
| AAAAGTTG | 0.0199 |
| TAGGCTGA | -0.018 |
| CGCCAATC | -0.00585 |
| ACCGTCAG | -0.157 |
| CGCAGGAC | -0.018 |
| ATACAGCA | 0.148 |
| GTGACGGA | 0.0528 |
| CAGCCGGG | -0.135 |
| CGCGACTA | 0.0315 |
| TATGTTAA | 0.121 |
| GGCCCTGA | -0.147 |
| AAAAGACT | -0.205 |
| AATGTCAT | 0.108 |
| GACGAGAC | 0.0172 |
| CGCTCTAA | -0.0655 |
| TAGAGTCA | -0.294 |
| ATGCTCCC | -0.265 |
| GGTGAAGA | -0.0933 |
| ACTAGCGG | -0.0618 |
| CAAGGAAA | 0.0493 |
| GATGGCGA | 0.0413 |
| AGAATACA | 0.18 |
| AGGGCAGG | -0.227 |
| ACCTGGCA | -0.0922 |
| ATCTTATG | 0.0173 |
| AAATTTCA | -0.14 |
| GTAGACCA | -0.101 |
| ATTGGATA | 0.129 |

The list goes on:

Sequence | PBM E-score
GGGCACCC | -0.341
ACCAGTAT | 0.0723
TACCACTA | 0.0357
AAGAAACA | 0.213
ATCAAATC | 0.222
CAGGACAG | -0.0132
AATTGAGA | 0.13
CCGATTAC | 0.23
GAGGCCAA | -0.0394
CGCCCGTA | -0.162
CGCCTCGC | -0.0625
ACCACGAG | -0.0373
AGCTTGTC | -0.161
AATGATCG | 0.0809
ATTTATAG | 0.0626
ATGGGACA | 0.0583
GCACGGCC | -0.0231
ACATTAGC | 0.165
ACTATGAT | 0.199
ACTTACTC | 0.0331
CATTAGAA | 0.104
CATAAGTA | 0.0709
ACACACCT | 0.132
CGACCGCG | 0.0264
CGCCTGAG | -0.0649

Sequence | PBM E-score
GAAATAAA | 0.172
AATGGTAA | 0.233
CAAACTGA | 0.0485
CCACCCCA | 0.0803
ATATTACG | 0.376
CGGACGCA | -0.114
ACGATGAG | 0.112
GTGTGCAA | -0.0627
GAGACATA | 0.22
CGATCACA | 0.171
GCTGTTGA | 0.0963
CCCTAATA | -0.00922
GCATTCAA | 0.0678
ACTCCCAA | 0.0288
CTCGAAAG | -0.0648
CGTTCTAG | -0.0174
CTAGACAG | 0.0214
ACTAGTAC | -0.00793
CAATGACA | 0.115
CTACAGCA | -0.12
GAGACCAA | 0.118
AATTAAGA | 0.0155
GATCTTCA | 0.0772
ACTAAAAA | 0.0836
GCCTTTTA | -0.161

Sequence | PBM E-score
CAGCCTTC | -0.128
GTACTGGA | 0.116
ACGTTGGA | -0.0955
AGTCCCGC | -0.143
CCCTAACA | 0.115
GAACGTAA | 0.297
GAGTCTGC | -0.287
AAGCTGTC | -0.0169
ACCTGCGC | 0.0121
AGGGACGC | -0.208
AGGCATCG | -0.244
AACGAGAT | 0.118
AGGCCCTC | -0.204
CCAAGTAC | -0.00446
AGAACGTC | -0.057
GATTCTCA | 0.126
AAAACACT | 0.0413
CTTCACTC | 0.0913
GGCTTACC | 0.169
CGTTAAGC | -0.0568
GAGGGCCA | -0.21
AAAACGCC | -0.0523
CTGTTGCA | 0.136
AGACTGGC | -0.251
GCTATCTA | -0.102

Sequence | PBM E-score
ACCTCTTC | 0.0737
GACCTCAC | -0.0133
CATCGTTA | -0.0312
TCCCAGCA | 0.00752
ATTCATTA | 0.122
CATTGTGG | -0.00112
CGGTATAA | 0.173
CGGGTTTC | 0.11
AAGCCGTG | -0.0435
AACAGATT | 0.0388
ATATCCTG | -0.0502
CGGTTAAC | -0.0698
AGGCCTAC | 0.0625
TAGCCGCA | -0.173
GTCATGGA | -0.0103
ACAAATGC | 0.133
CGGAAACC | -0.0102
AGAAAACA | 0.0208
AAAGGACA | 0.0242
AACGGGGT | -0.179
GTAAAGAC | 0.145
ATTAATTC | 0.238
